Here are results for 1 molecule from article PMC12003058.

Results are given in words; binding and its absence hold for the method and conditions named. Binding seen in cells or lysates may run through a third protein. A result given as binding can be weak or reduced; the word gives no strength. Tags and fused reporters may be left off the sequences shown.

In assay [1] the target is GST-Brg1-Flag deletion mutant, C-terminal domain. The experiment in a line: pull-down; 10 ug GST fusion protein (full length or deletion mutant) with glutathione-agarose beads and precleared lysate of HeLa cells expressing Brg1-V5 or Letmd1-V5; 6 hours at 4°C; four washes; blot with anti-V5 or anti-Flag; only the target purified.
For assay [2], the target named is GST-Brg1-Flag deletion mutant, N-terminal domain. The assay is described as above.

B1: Letmd1-V5, expressed in HeLa cells (protein, UniProt Q924L1 1-360)
chain: MALSRVCWARAALWGSTVAPGPFVTRRLQLGRSGPAWRAPRSSKLHLSPKADVKNLISYVVTKTRAINGSYHRFLGRHFPRFYALYTTFMKGIQMLWADGKKARRIKADMWKQNLKFHQLSYREMEHLRQFRRDITKCLFVGLISIPPFANYLVFLLMYLFPRQLLVKHFWTPKQQIDFLDVYHGLRRRSHSEVITHLRRASTFVSHEKLRRQLTDLCTKVQSGTHPAAQDVLALRDCFSTYPLGFSQLQASQMRALSQAMLLTPYLPPPLLRQRLKSHTTVIHQLDRALAKLGIGQLTAQEVKSACYLRGLNSTHIADDRCRAWLGEWLHISCSLKEPELSLLLHNVVLLSTNYLETRR
Regarding B1, the binding result in assay [1] and in assay [2] was “binds” throughout.
